From patent publication US20150299312A1 (TECHNISCHE UNIVERSIT T DRESDEN, published 2015)
Results are given in words; binding and its absence hold for the method and conditions named. Some binding calls cover weakened binding; strength is not graded here.

T1: P-selectin glycoprotein ligand 1 (PSGL-1) with the O-bound glycan structure 6-sulfo N-acetyl lactosamine (6-sulfo LacNAc) (human) (UniProt Q14242)
T1 sequence (looked up): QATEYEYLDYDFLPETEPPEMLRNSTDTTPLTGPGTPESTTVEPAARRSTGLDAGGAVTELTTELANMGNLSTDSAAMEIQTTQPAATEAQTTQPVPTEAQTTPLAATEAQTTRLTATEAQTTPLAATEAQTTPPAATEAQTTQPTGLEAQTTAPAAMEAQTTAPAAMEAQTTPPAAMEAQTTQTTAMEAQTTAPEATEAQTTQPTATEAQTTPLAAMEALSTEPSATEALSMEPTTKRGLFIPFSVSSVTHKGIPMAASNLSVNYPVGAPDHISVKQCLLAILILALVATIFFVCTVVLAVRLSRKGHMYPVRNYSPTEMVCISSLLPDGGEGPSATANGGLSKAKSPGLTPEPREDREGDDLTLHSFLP


Assays:
[1] = target: T1, P-selectin glycoprotein ligand 1 (PSGL-1) with the O-bound glycan structure 6-sulfo N-acetyl lactosamine (6-sulfo LacNAc) (human); test: FACS on slan-DCs
[2] = target: T1, P-selectin glycoprotein ligand 1 (PSGL-1) with the O-bound glycan structure 6-sulfo N-acetyl lactosamine (6-sulfo LacNAc) (human); test: FACS on native slan-DCs, detection with anti-mouse-IgM-Alexa Fluor 488

binding [1] | binding [2] | Binder
binds | binds | monoclonal IgM antibody MB4 (antibody, V domains shown, also called anti-slan antibody MB4) VH: EVKLQESGPGLVQPSQSLSITCTVSGFSLTTYGVHWIRQSPGKGLEWLGVIWSGGGTDFNVAFMSRLSINKDNSKSQIFFKMNSLQANDTAIYYCARRTTNDGNYAFAYWGQGTLVTVS VL: DIVMTQSPLSLPVSLGDQASISCRSSQNILHSDGSTYLEWYLQKPGQSPKLLIYKVSNRFSGVPDRFSGSGSGTDFTLKISRVEAEDLGVYYCFQGSHVPWTFGGGTKLEIKR
binds | binds | monoclonal IgM antibody MB6 (antibody, V domains shown, also called anti-slan antibody MB6) VH: EVKLEQSGPGLVQLSQSLSITCTVSGFSLTTYGVHWIRQSPGKGLEWLGVIWSGGGTDFNVAFISRLSINKDNSKSQVFFKMNSLQANDTAIYYCARRTTNDGNYAFAYWGQGTLVTVS VL: DIVMTQSPLSLPVSLGDQASISCRSSQNILHSDGNTYLEWYLQKPGQSPKLLIYKVSNRFSGVPDRFSGSGSGTDFTLKISRVEAEDLGVYYCFQGSHVPWTFGGGTKLEIKR
